For 59 compounds, AC50 and cell number change results are on record in PubChem BioAssay AID2685 (National Center for Advancing Translational Sciences (NCATS), 2010).

Each structure is given as a SMILES string. Some of the results follow. Further columns of the screen follow, without active or inactive calls. The list favours compounds with an active or inconclusive main result. The note in brackets gives the kind of curve behind each potency; many fits are weak.

The nature of the test: qHTS Assay for Lipid Storage Modulators in Drosophila S3 Cells.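 As to cell number change: cells counted by Cell Tracker Red CMTPX staining in the red channel.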 The settings on record: BODIPY lipid droplet fluorescence, 18-24 h; for cell number change: measured here: cell count max response, cells fed with added oleic acid. An outline of the steps:
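Laser-scanning cytometry quantifies lipid droplet accumulation (500–530 nm total intensity; droplet/cell object ratio) in oleic acid-fed (400 uM added) Drosophila S3 cells treated with a concentration series. 20 uM Triacsin C defined 100% inhibition.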
A general note: qHTS replaces the single test concentration by a dilution series.

Where [1] appears, read: measured here: lipid fluorescence (Fed channel) AC50, cells fed with added oleic acid.
Where [2] appears, read: measured here: cell number channel AC50, cells fed with added oleic acid.

One may read the AC50 as the concentration at which the activity in the assay is half-maximal. A higher AC50 goes with weaker potency. Take `CCOc1cccc(CN2CCCC(CCC(=O)NCc3ccccc3F)C2)c1O` (stereo unspecified): the AC50 under setting [1] is 4.11 µM [rising, single point].

In the case of `CCCC(=O)NC(c1ccc(C(C)C)cc1)c1ccc2cccnc2c1O` (stereo unspecified), the cell number change was -34.7%. Under setting [2], the AC50 is 18.4 µM [falling, partial curve, poor fit]. In addition, the AC50 under setting [1] is 11.6 µM [falling, partial curve, poor fit].

`Cc1cc(NC(=O)CSc2ccc(-c3nc4cc(C)c(C)cc4[nH]3)cn2)no1`: the cell number change was -1.98%. Moreover, the AC50 under setting [1] was 0.116 µM [falling, full curve, poor fit].

Regarding `COCCCNC(=O)C(=O)NCC1CCCN1S(=O)(=O)c1cccs1` (stereo unspecified), the cell number change worked out at 41.7%. Under setting [2], the AC50 was 23.1 µM [rising, single point].

On to `CCS(=O)(=O)C1=NN2C(=N)/C(=C\c3ccc(SCc4ccco4)o3)C(=O)N=C2S1`, for which the cell number change is -37.2%. In addition, the AC50 under setting [2] is 6.51 µM [falling, single point]. Also, the AC50 under setting [1] was 2.31 µM [falling, partial curve, poor fit].

As for `O=C(CSc1nnc(CNC(=O)c2ccccc2)o1)NCc1ccccc1Cl`, the cell number change was -59.7%. Besides, the AC50 under setting [2] was 14.6 µM [falling, partial curve, poor fit]. Also, under setting [1], the AC50 is 8.2 µM [falling, partial curve].

Take `COc1ccc(OC)c(C(=O)CSc2nc3ncccc3[nH]2)c1`: the cell number change came to 90.7%. In addition, under setting [2], the AC50 is 29.1 µM [rising, single point].

As for `O=C(O)C(Cc1c[nH]c2ccccc12)N1C(=O)C2C3c4ccccc4C(c4ccccc43)C2C1=O` (stereo unspecified), the cell number change turned out to be 39.7%. Also, the AC50 under setting [1] was 20.6 µM [rising, single point].

As to `CC[C@@H]1[C@H]2CCCC(=O)N3CC[C@@H](C[C@@H]1Nc1ccccc1)[C@@H]23`, the cell number change was determined as 11.4%. The AC50 under setting [1] was 6.51 µM [falling, single point].

Take `CNC(=O)c1[nH]cnc1C(=O)Nc1cccc(C)c1`: the cell number change was determined as 8.02%. Further, under setting [1], the AC50 is 20.6 µM [rising, single point].

For `Cc1[nH][nH]c(=O)c1N=Nc1ccccc1`, the cell number change worked out at 99.5%. In addition, under setting [2], the AC50 is 25.9 µM [rising, single point].

As to `CCN1CCN(S(=O)(=O)c2cccc([N+](=O)[O-])c2)CC1`, the cell number change was -8.03%.

As for `c1ccc(Sc2cccc3ccccc23)c(CNC2=NCCN2)c1`, the AC50 under setting [1] is 0.0731 µM [falling, full curve, poor fit].

With `Cc1nccn1CCc1nc(N)nc(N)n1`, the cell number change was -95.3%. For the same compound, the AC50 under setting [2] is 5.8 µM [falling, full curve]. The AC50 under setting [1] is 29.1 µM [falling, partial curve].

For `CCOc1ccc(NC(=O)CCNS(=O)(=O)c2ccc3c(c2)c(=O)n(C)c(=O)n3C)cc1`, the cell number change is 5.16%.

As to `O=C(Cc1ccccc1)Nc1ncccn1`, the cell number change was -18.4%. For the same compound, the AC50 under setting [1] is 23.1 µM [falling, partial curve, poor fit].

In the case of `Cc1cc(C)nc(Sc2ccc(C=O)cc2[N+](=O)[O-])n1`, the cell number change worked out at 4.41%.

In the case of `OCC[C@H]1C[C@@H](O)[C@H](O)[C@]2(CCCCO2)O1`, the cell number change was -5.6%.

As to `O=C(COC(=O)c1cc([N+](=O)[O-])ccc1N1CCOCC1)Nc1ccccc1OC(F)F`, the AC50 was 3.26 µM [rising, single point] under setting [2] and 6.51 µM [rising, single point] under setting [1].

Regarding `CCN(CCn1cccn1)C(=O)CCc1nnc(C2(c3ccc(Cl)cc3)CCC2)o1`, the cell number change is -1.87%. Moreover, under setting [1], the AC50 was 0.58 µM [falling, single point].

With `Nc1c(C(=O)c2ccco2)oc2ccccc12`, the cell number change was 13.5%. Further, the AC50 under setting [2] is 0.0517 µM [rising, full curve, poor fit].

`COc1cc2c(cc1OC)C(c1ccccc1O)N(C1CC(=O)N(c3ccccc3)C1=O)CC2` (stereo unspecified): the cell number change is -10.6%. Also, under setting [1], the AC50 was 1.84 µM [rising, partial curve].

`O=C1C2ON(c3ccccc3)C(c3ccncc3)C2C(=O)N1c1ccccc1` (stereo unspecified): the AC50 by setting is: under setting [2], 3.66 µM [rising, single point]; under setting [1], 2.59 µM [rising, single point].

Consider `CC(C)(C)NC1=CC(=O)OC12CCCCC2`, for which the cell number change is -19.8%. Besides, under setting [1], the half-maximal activity concentration (AC50) is 1.46 µM [falling, partial curve, poor fit].

On to `CCOC(=O)c1ccc(NC(=S)N2CCC(C(N)=O)CC2)cc1`, for which the cell number change worked out at 12.1%. Moreover, under setting [1], the AC50 was 23.1 µM [rising, single point].

Turning to `O=S(=O)(c1ccc(SCc2ccccc2)nc1)N1CCCCCC1`, the cell number change was -3.76%. Moreover, the AC50 under setting [1] is 16.4 µM [falling, single point].

Turning to `S=c1[nH]nc(COc2ccccc2)n1/N=C/c1cccc(Br)c1`, the cell number change was -46.2%. Also, under setting [2], the AC50 is 18.4 µM [falling, single point]. Further, the AC50 under setting [1] was 16.4 µM [falling, single point].

For the compound `COc1ccc(OC)c(CN(CCN2CCOCC2)C(=O)Nc2cccc(Cl)c2)c1`, the cell number change was -2.9%. The AC50 under setting [2] was 3.66 µM [rising, single point].

Take `Cc1ccc(CS(=O)(=O)c2nsc(C)c2C#N)cc1`: the cell number change is 20.6%. Also, the AC50 under setting [1] is 6.51 µM [falling, single point].

For `O=C(Cn1cnc2ccccc2c1=O)c1ccc2c(c1)OCCO2`, the cell number change was 2.75%. For the same compound, the AC50 under setting [1] is 0.0259 µM [falling, full curve, poor fit].

Regarding `O=C(NCCc1ccccc1Cl)C1CC(=O)N(C2CCCCC2)C1` (stereo unspecified), the cell number change was -11.4%. The AC50 under setting [1] is 6.51 µM [rising, single point].

For the compound `CCN(CC)CC(=O)NC1CC(C)(C)Cc2c1cnn2-c1ccc(F)cc1` (stereo unspecified), the cell number change is -11%.

With `O=C(Nc1ccccc1)N1CCN(c2ncccn2)CC1`, the AC50 under setting [1] is 0.58 µM [falling, single point].

As to `COc1ccc(/C=C/c2c([N+](=O)[O-])c(=O)n(C)c(=O)n2C)c(OC)c1`, the cell number change was 65.4%. The AC50 under setting [2] is 29.1 µM [rising, single point].

`CC1=NN(c2ccc(C)cc2)C(=O)/C1=C\c1ccc(Br)s1`: the cell number change is -9.22%. Moreover, the AC50 under setting [1] was 29.1 µM [falling, single point].

As to `CCOc1ccc(NC(=O)CSc2nnc(-c3ccco3)n2C)cc1`, the cell number change amounted to 17.7%. Further, under setting [2], the concentration at half-maximal activity (AC50) was 0.92 µM [rising, full curve, poor fit].

For `Cc1cc(C)c(S(=O)(=O)Nc2cccc(/C=C/C(=O)O)c2)c(C)c1`, the cell number change is -49.1%. The AC50 under setting [2] is 29.1 µM [falling, single point]. In addition, the AC50 under setting [1] was 25.9 µM [falling, single point].

As to `Cc1ccc(N/N=C(/Sc2nnnn2-c2ccccc2)C(=O)c2ccccc2)cc1`, the cell number change worked out at 7.94%. For the same compound, the half-maximal activity concentration (AC50) under setting [1] was 18.4 µM [rising, partial curve].

Take `CCOC(=O)Cn1nnnc1CN1CCN(c2ccc(OC)cc2)CC1`: the cell number change was -12.7%. Under setting [1], the AC50 was 0.651 µM [falling, full curve].

Take `COc1ccc(CNC(=O)COC(=O)c2ccc3ncsc3c2)cc1OC`: the cell number change was -52.9%. Also, under setting [2], the AC50 was 16.4 µM [falling, partial curve].

`CSCC(=O)NC1CCCc2c1cnn2-c1cc(F)cc(F)c1` (stereo unspecified): the cell number change was -56.9%. Further, the AC50 under setting [2] is 14.6 µM [falling, partial curve]. Moreover, the AC50 under setting [1] was 8.2 µM [falling, partial curve].

With `O=C(NC1CCCC1)C1CCCN1C(=O)Nc1ccccc1Cl` (stereo unspecified), the cell number change was -31.3%. Moreover, the AC50 under setting [2] was 20.6 µM [falling, single point]. Besides, under setting [1], the AC50 is 29.1 µM [falling, single point].

Regarding `NC(=O)c1nsc(C(=O)N(CC(=O)NC2CCCC2)c2cccc(C(F)(F)F)c2)c1N`, the cell number change was -12.5%. Also, the AC50 under setting [1] is 29.1 µM [rising, single point].

In the case of `CC(=O)C1=C(O)C(=O)N(CC(=O)O)C1c1ccccc1Cl` (stereo unspecified), the cell number change was -19.6%. The AC50 under setting [1] is 2.91 µM [falling, full curve].

For `CCn1c(-c2csc3c2CCCC3)n[nH]c1=S`, the cell number change was 7.72%. Moreover, the AC50 under setting [1] was 29.1 µM [rising, single point].

As for `COc1cccc2c1O/C(=N\O)C(C(=O)Nc1cccc(C)c1C)C2` (stereo unspecified), the cell number change was 4.6%. For the same compound, the AC50 under setting [1] was 7.31 µM [falling, single point].

As for `CC(C)C(=O)N1CCC(c2nc(-c3ccc(S(=O)(=O)N4CCCC4)cc3)no2)CC1`, the cell number change worked out at 7.91%. In addition, under setting [1], the concentration at half-maximal activity (AC50) was 29.1 µM [falling, single point].

`COc1ccc(-c2ocnc2C(=O)Nc2ccccc2N2CCCCC2)cc1`: the cell number change was -31.4%. Besides, the AC50 under setting [2] was 0.13 µM [falling, full curve, poor fit].

`O=C(O)CNC(=O)c1ccccc1Br`: under setting [2], the AC50 is 4.61 µM [falling, single point].

Take `CCOC(=O)N1CCC(NC(=O)c2ccc(CS(=O)(=O)c3ccc(OC)cc3)o2)CC1`: the AC50 is 2.31 µM [rising, single point] under setting [2] and 9.2 µM [rising, single point] under setting [1].

Consider `CCOC(=O)C1C(=O)NC(c2ccccc2)=NC1c1cccc(Br)c1` (stereo unspecified), for which the cell number change was -11.6%. For the same compound, the AC50 under setting [2] was 0.103 µM [rising, full curve, poor fit].

On to `CC(C)c1ccc(-c2nc3c([nH]2)c(=O)n(C)c(=O)n3C)cc1`, for which the cell number change is -9.33%. The AC50 under setting [1] was 29.1 µM [falling, single point].

As to `Cc1ccc(NC(=O)C(Cc2ccccc2)NC(=O)c2ccco2)cc1` (stereo unspecified), the cell number change was -0.4%. Under setting [1], the AC50 is 1.46 µM [falling, full curve, poor fit].

For the compound `COCCC(=O)N1CCC(Oc2ccc(C(=O)NC(C)CCn3cccn3)cc2)CC1` (stereo unspecified), the cell number change worked out at 12.4%. Further, the AC50 under setting [1] was 0.651 µM [rising, single point].

As to `COc1cc2c(cc1OC)-c1cc(N3CCCc4ccccc43)nc(=O)n1CC2`, the cell number change is 13.1%. For the same compound, under setting [1], the AC50 was 0.116 µM [rising, full curve].

Consider `Cc1nc(NS(=O)(=O)c2ccccc2)sc1NC(=O)Nc1ccccc1`, for which the cell number change was -7.75%. Besides, the AC50 under setting [1] is 0.291 µM [rising, partial curve, poor fit].

For the compound `CC(=O)Nc1sc2c(c1C(c1cccc(Cl)c1)N1CCN(CCO)CC1)CCCC2` (stereo unspecified), the cell number change was 54.1%. The AC50 under setting [2] is 29.1 µM [rising, single point].

Regarding `CN(C)S(=O)(=O)Oc1ccsc1C(=O)Nc1ccc(C(F)(F)F)cc1`, the cell number change worked out at 12.3%. The AC50 under setting [1] was 20.6 µM [rising, partial curve].

Take `COc1ccc(CC(NC(C)=O)C(=O)NC2CCN(S(=O)(=O)c3cccc4ccccc34)CC2)cc1OC` (stereo unspecified): the AC50 under setting [2] was 1.84 µM [rising, partial curve].
